From the supplement of paper PMC10849652
Some of the results follow.

Chains of the proteins cited; added tags and fusions are not shown. Lines headed by an entry give the natural chain unless they say otherwise; changes in a name come on top.
UniProt Q9NX24: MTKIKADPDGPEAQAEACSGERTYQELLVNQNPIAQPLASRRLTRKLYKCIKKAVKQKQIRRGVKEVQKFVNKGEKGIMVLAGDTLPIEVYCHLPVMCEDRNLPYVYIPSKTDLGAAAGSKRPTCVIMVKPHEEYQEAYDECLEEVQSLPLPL
UniProt Q9Y2X3: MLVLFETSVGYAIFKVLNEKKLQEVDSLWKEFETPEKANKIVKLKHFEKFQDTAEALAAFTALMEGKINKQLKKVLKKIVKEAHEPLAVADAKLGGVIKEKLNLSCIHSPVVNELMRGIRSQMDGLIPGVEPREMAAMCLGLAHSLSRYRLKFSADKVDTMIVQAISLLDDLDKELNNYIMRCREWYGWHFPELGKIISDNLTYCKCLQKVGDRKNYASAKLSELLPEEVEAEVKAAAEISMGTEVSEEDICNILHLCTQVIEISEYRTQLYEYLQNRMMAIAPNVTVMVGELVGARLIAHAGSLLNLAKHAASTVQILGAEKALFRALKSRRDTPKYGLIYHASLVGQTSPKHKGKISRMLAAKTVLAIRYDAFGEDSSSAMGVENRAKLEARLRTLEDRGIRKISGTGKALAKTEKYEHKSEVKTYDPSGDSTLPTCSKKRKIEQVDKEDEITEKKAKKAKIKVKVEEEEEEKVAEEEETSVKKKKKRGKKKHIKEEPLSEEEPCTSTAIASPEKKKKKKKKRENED
UniProt P46459: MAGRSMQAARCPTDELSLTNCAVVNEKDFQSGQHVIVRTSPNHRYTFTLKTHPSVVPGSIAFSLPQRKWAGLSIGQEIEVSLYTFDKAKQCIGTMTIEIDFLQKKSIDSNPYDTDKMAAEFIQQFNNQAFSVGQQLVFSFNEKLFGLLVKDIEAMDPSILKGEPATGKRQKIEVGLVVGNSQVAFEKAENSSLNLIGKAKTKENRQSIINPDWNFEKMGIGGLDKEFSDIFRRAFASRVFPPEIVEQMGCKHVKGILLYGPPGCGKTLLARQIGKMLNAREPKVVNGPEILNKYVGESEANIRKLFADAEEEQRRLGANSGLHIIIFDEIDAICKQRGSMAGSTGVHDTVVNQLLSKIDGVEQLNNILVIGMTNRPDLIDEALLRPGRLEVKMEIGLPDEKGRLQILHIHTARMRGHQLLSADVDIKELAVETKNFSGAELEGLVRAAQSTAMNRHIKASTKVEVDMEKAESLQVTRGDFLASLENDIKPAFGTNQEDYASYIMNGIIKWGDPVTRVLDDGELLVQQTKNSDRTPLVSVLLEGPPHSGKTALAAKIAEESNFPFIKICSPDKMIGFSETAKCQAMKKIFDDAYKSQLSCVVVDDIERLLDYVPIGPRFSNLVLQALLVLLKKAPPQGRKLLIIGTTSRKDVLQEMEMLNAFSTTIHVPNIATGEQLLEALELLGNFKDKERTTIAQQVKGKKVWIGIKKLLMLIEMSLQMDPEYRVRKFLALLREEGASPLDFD
UniProt O60936: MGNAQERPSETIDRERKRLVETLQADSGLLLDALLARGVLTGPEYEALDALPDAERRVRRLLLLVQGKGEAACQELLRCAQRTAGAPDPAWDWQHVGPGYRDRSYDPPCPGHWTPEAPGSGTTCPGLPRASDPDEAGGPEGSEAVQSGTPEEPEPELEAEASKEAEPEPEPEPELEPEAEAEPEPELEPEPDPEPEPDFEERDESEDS
UniProt Q9NVX2: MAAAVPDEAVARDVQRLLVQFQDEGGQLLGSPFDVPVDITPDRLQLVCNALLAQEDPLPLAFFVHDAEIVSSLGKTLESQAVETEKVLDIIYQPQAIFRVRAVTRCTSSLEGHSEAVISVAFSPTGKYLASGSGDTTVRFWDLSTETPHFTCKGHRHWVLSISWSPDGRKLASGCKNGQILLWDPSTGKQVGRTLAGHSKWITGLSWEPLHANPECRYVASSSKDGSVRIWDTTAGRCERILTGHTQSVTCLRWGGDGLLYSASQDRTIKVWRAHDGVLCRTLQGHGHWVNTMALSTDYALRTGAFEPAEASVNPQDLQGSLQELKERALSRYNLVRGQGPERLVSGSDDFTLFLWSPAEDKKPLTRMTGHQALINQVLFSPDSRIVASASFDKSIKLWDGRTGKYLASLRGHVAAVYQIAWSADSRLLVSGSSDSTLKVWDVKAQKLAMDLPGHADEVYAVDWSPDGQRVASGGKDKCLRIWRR
UniProt Q9NPE3: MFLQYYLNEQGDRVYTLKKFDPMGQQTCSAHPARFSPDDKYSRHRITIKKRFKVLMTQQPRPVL
UniProt P51956: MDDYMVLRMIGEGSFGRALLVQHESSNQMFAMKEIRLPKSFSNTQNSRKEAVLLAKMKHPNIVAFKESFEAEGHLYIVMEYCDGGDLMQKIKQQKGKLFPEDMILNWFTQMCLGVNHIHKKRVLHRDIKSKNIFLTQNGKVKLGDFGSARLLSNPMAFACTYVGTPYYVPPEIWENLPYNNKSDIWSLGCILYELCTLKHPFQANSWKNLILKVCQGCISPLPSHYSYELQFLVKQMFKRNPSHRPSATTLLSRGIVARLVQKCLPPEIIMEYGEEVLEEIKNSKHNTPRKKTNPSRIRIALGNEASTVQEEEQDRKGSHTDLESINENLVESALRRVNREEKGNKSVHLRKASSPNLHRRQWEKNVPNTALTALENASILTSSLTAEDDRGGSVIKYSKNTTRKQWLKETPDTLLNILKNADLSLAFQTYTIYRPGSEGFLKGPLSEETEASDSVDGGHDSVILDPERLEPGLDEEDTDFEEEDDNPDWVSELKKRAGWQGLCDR
UniProt Q12986: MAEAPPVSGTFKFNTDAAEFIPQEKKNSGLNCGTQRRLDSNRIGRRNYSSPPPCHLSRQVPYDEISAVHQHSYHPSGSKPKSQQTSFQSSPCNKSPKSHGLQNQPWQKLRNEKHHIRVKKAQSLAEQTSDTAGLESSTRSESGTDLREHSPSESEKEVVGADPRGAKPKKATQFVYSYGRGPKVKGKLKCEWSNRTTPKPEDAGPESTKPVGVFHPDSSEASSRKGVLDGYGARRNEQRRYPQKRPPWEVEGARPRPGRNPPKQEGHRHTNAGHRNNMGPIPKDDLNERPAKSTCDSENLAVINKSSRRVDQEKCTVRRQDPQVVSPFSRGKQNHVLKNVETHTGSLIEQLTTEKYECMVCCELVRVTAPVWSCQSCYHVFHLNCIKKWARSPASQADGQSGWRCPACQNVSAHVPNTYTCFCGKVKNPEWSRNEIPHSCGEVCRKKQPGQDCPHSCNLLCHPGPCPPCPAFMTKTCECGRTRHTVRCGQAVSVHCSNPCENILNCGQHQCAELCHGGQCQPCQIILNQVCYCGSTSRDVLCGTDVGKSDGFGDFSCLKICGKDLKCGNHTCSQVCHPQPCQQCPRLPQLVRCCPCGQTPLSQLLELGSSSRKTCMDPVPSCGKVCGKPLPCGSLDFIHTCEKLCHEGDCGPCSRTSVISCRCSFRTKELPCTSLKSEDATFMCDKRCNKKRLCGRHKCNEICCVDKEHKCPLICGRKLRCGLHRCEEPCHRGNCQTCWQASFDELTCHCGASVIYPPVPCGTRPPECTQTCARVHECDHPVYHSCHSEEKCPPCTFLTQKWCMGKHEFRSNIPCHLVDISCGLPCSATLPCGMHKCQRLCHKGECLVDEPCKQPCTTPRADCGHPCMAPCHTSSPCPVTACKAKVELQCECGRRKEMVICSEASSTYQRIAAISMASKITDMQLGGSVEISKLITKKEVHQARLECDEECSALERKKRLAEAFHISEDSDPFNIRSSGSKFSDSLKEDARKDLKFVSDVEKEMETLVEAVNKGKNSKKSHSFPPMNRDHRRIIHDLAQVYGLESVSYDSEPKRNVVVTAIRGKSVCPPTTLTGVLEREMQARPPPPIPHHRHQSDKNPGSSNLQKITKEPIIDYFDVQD
UniProt P30419: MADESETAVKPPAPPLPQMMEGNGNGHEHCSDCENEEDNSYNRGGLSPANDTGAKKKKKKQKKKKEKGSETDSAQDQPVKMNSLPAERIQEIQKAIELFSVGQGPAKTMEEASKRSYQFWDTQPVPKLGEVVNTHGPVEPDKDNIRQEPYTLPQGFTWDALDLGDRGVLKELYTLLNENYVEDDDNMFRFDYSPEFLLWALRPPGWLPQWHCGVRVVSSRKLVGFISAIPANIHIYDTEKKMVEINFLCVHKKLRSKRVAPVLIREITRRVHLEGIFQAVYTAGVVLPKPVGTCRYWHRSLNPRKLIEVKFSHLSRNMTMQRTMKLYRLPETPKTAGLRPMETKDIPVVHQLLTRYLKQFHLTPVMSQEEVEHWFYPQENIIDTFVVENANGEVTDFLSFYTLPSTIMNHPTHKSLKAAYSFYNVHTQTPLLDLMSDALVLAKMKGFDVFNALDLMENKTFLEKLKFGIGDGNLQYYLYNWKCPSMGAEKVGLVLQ
UniProt Q9NYR9: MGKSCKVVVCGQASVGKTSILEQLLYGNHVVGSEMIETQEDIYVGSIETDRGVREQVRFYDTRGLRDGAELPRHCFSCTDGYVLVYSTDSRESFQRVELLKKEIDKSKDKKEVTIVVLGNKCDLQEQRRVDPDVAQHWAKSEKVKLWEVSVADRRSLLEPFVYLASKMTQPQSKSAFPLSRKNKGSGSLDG
UniProt Q8NC67: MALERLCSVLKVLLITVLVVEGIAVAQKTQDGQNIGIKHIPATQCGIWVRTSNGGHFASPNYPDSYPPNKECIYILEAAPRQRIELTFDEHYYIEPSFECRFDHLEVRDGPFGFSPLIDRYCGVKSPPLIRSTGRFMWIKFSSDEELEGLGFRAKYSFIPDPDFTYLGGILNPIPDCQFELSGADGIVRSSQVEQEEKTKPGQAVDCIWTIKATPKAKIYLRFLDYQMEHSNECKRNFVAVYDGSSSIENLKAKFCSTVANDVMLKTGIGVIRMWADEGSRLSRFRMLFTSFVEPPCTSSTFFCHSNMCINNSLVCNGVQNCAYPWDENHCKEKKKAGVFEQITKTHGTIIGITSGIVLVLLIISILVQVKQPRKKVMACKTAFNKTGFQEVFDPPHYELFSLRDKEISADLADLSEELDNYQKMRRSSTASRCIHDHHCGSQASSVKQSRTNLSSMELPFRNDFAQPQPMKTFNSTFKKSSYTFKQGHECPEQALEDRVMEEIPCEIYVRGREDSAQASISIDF
UniProt Q96JN8: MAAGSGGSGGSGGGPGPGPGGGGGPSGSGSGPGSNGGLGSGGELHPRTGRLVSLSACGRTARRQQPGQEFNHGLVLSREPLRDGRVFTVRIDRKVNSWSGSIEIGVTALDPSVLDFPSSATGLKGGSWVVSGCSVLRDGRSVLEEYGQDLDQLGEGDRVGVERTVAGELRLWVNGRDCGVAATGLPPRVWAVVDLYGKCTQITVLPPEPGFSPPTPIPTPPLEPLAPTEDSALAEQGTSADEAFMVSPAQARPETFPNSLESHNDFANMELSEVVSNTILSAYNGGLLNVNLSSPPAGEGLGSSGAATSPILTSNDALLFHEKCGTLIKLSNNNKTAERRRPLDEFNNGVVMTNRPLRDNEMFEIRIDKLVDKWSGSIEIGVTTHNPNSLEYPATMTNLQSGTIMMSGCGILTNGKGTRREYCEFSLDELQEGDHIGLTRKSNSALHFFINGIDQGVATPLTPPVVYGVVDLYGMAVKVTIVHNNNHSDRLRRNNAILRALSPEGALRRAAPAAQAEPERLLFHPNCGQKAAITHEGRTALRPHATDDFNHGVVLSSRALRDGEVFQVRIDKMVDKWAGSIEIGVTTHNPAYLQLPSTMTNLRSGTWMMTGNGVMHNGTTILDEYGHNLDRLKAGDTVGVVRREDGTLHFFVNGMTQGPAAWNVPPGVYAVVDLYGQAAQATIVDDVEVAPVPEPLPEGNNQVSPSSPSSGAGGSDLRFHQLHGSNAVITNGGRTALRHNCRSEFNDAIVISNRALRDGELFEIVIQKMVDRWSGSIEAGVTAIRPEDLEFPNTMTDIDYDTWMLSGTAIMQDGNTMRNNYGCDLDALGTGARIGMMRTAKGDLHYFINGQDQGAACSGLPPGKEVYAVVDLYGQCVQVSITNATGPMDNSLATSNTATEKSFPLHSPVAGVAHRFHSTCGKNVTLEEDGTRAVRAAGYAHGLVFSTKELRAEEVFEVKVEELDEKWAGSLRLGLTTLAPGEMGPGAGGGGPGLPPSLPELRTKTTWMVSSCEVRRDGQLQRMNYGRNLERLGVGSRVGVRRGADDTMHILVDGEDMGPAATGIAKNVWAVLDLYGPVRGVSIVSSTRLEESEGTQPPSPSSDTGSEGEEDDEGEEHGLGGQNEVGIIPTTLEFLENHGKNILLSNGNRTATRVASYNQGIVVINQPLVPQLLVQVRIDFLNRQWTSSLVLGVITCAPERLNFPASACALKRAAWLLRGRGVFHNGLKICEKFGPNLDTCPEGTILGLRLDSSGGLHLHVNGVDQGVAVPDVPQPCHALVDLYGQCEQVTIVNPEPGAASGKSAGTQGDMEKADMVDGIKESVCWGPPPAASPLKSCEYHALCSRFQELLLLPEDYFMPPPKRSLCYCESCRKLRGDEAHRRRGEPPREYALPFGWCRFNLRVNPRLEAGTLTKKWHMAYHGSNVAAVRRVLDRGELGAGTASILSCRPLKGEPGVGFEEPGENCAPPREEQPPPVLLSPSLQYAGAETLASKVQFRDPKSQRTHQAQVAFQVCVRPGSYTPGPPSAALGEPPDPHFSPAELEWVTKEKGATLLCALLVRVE

Key:
Test in all cases: log2 fold change, soluble protein after heating vs DMSO (PISA); higher = thermal stabilisation; K562 cells, 10 uM, 30 min; active = over 0.2 and 3.5 SD of the protein, either way, in both replicates (recomputed)
[1] = compound: C1=CC=C(C=C1)[C@H](COC2=CC3=C(C=C2)NC(=O)N3)NC(=O)C4=CC=CN(C4=O)CC5=CC(=C(C=C5)F)F
Procedure, shortened: (§1)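 K562 cells at 2×10^6 cells/mL were exposed to 10 μM compound for 30 min, then aliquots were heated for 3 min across 48°C-58°C, pooled, and extracted in PBS containing 0.5% NP-40 at 4°C. The supernatant after 21,000xg for 90 min was taken as soluble protein and measured by TMTpro 16plex LC-MS/MS with channel sums equalised. Thermal stability is reported relative to control samples, with values from duplicates. Fold changes are given on a log2 scale.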

[2] = compound: CC1=C(SC2=C1C(=N[C@H](C3=NN=C(N32)C)CC(=O)N)C4=CC=C(C=C4)Cl)C
Procedure, shortened: as §1

[3] = compound: CC1=C2C(=CC=C1)N=C(N(C2=O)C3=CC=CC=C3C)CN4C=NC5=C(N=CN=C54)N
Procedure, shortened: as §1

[4] = compound: Cc1sc2c(c1C)C(c1ccc(Cl)cc1)=N[C@@H](CC(=O)OC(C)(C)C)c1nnc(C)n1-2
Procedure, shortened: as §1

[5] = compound: c1ccc([C@@H]2C[C@H]2NC2CCNCC2)cc1
Procedure, shortened: as §1

Measured: log2 fold change

NFE2 (UniProt Q16621)
inactive: [1] 0.054 | [2] -0.004 | [3] 0.12 | [4] 0.087 | [5] 0.145

NHP2 (UniProt Q9NX24)
inactive: [1] 0 | [2] -0.135 | [3] -0.138 | [4] 0.122 | [5] 0.133

NMD3 (UniProt Q96D46)
inactive: [1] -0.046 | [2] 0.049 | [3] 0.01 | [4] -0.02 | [5] -0.11

NOP58 (UniProt Q9Y2X3)
inactive: [1] 0.039 | [2] -0.151 | [3] -0.063 | [4] 0.068 | [5] 0.031

NR2C2 isoform 2 (UniProt P49116)
inactive: [1] -0.011 | [2] 0.046 | [3] 0.059 | [4] 0.042 | [5] 0.024

NSL1 (UniProt Q96IY1)
inactive: [1] 0.021 | [2] 0.059 | [3] 0.146 | [4] 0 | [5] -0.052

NEK9 (UniProt Q8TD19)
inactive: [1] -0.012 | [2] 0.068 | [3] 0.031 | [4] -0.024 | [5] 0

NFKBIB (UniProt Q15653)
inactive: [1] 0.01 | [2] 0.051 | [3] 0.097 | [4] -0.015 | [5] -0.012

NRBP1 (UniProt Q9UHY1)
inactive: [1] 0.055 | [2] 0.027 | [3] 0.066 | [4] -0.039 | [5] 0.01

NOL11 (UniProt Q9H8H0)
inactive: [1] 0.007 | [2] 0 | [3] -0.008 | [4] -0.014 | [5] 0.025

NSF (UniProt P46459)
inactive: [1] -0.018 | [2] 0.027 | [3] 0.073 | [4] -0.022 | [5] -0.033

NOLC1 isoform 2 (UniProt Q14978)
inactive: [1] 0 | [2] -0.029 | [3] 0.002 | [4] -0.012 | [5] 0.108

NSD3 (UniProt Q9BZ95)
inactive: [1] -0.097 | [2] 0.201 | [3] -0.309 | [4] 0.278 | [5] -0.059

NELFA (UniProt Q9H3P2)
inactive: [1] -0.016 | [2] 0.213 | [3] 0.056 | [4] -0.07 | [5] 0.035

NOMO2 (UniProt Q5JPE7)
inactive: [1] 0.027 | [2] 0.029 | [3] 0.027 | [4] -0.036 | [5] -0.019

NOS1AP (UniProt O75052)
inactive: [1] -0.109 | [2] 0.025 | [3] 0.362 | [4] -0.141 | [5] -0.178

NSFL1C isoform 5 (UniProt Q9UNZ2)
inactive: [1] -0.005 | [2] 0.073 | [3] 0.055 | [4] -0.019 | [5] 0

NOL3 isoform 3 (UniProt O60936)
inactive: [2] -0.035 | [3] -0.069 | [4] 0.045 | [5] 0.182

NPC1 (UniProt O15118)
inactive: [1] -0.034 | [2] -0.038 | [3] -0.017 | [4] 0.009 | [5] 0.049

NIPBL (UniProt Q6KC79)
inactive: [1] 0.112 | [4] -0.113

NLE1 (UniProt Q9NVX2)
inactive: [1] 0.043 | [2] 0.058 | [3] 0.001 | [4] -0.026 | [5] 0.004

NHLRC3 (UniProt Q5JS37)
inactive: [1] -0.018 | [2] 0.192 | [4] -0.055 | [5] 0.138

NOD1 (UniProt Q9Y239)
inactive: [1] 0.121 | [2] 0.013 | [5] -0.066

NFATC2IP (UniProt Q8NCF5)
inactive: [1] -0.051 | [2] 0.18 | [3] 0.039 | [4] -0.088 | [5] 0.156

NOSIP (UniProt Q9Y314)
inactive: [1] 0.056 | [2] 0.043 | [3] 0.179 | [4] -0.043 | [5] 0.016

NFE2L1 (UniProt Q14494)
inactive: [2] -0.126 | [3] -0.007 | [4] -0.113 | [5] -0.065

NOP10 (UniProt Q9NPE3)
inactive: [1] 0.043 | [2] -0.001 | [5] -0.02

NLRX1 (UniProt Q86UT6)
inactive: [4] -0.056

2 entries drawn at random from the list so far, as already listed:
NFATC2IP (UniProt Q8NCF5)
inactive: [1] -0.051 | [2] 0.18 | [3] 0.039 | [4] -0.088 | [5] 0.156

NOP10 (UniProt Q9NPE3)
inactive: [1] 0.043 | [2] -0.001 | [5] -0.02

Additional entries.

NEK3 (UniProt P51956)
inactive: [2] 0.204 | [3] 0.053 | [4] -0.032 | [5] -0.094

NFX1 (UniProt Q12986)
inactive: [1] -0.011 | [2] -0.161 | [3] -0.068 | [4] 0.115 | [5] -0.163

NRF1 isoform 4 (UniProt Q16656)
inactive: [1] -0.045 | [2] 0.001 | [3] 0.085 | [4] -0.043 | [5] -0.039

NOLC1 isoform 3 (UniProt Q14978)
inactive: [2] 0.007 | [5] -0.021

NELFCD (UniProt Q8IXH7)
inactive: [1] -0.022 | [2] 0.155 | [3] 0.214 | [5] 0.034

NMT1 (UniProt P30419)
inactive: [1] 0 | [2] 0.032 | [3] -0.001 | [4] 0.076 | [5] -0.018

NEK1 isoform 3 (UniProt Q96PY6)
inactive: [2] 0.046 | [3] 0.148 | [5] 0.018

NEO1 (UniProt Q92859)
inactive: [3] 0.045 | [4] -0.11

NKIRAS2 (UniProt Q9NYR9)
inactive: [4] 0.057

NFKBIA (UniProt P25963)
inactive: [3] -0.009

NRSN2 (UniProt Q9GZP1)
inactive: [4] 0.007

NGDN (UniProt Q8NEJ9)
inactive: [2] -0.047 | [4] -0.121 | [5] 0.278

NFKB2 (UniProt Q00653)
inactive: [1] 0.05 | [2] -0.076 | [4] 0.147 | [5] 0.126

NLRC3 isoform 2 (UniProt Q7RTR2)
inactive: [1] 0 | [2] -0.037 | [3] 0.433 | [5] 0.152

NFIC isoform 6 (UniProt P08651)
inactive: [3] -0.029

NFKBIE (UniProt O00221)
inactive: [2] 0.128 | [3] 0.12 | [4] 0.012 | [5] -0.01

NOC2L (UniProt Q9Y3T9)
inactive: [1] -0.002 | [2] 0.037 | [3] 0.08 | [4] -0.005 | [5] -0.008

NR2C1 (UniProt P13056)
inactive: [1] 0.038 | [3] 0.234

NETO2 (UniProt Q8NC67)
inactive: [3] 0.077

NOTCH2 (UniProt Q04721)
inactive: [1] 0.087 | [4] -0.055

NEURL4 (UniProt Q96JN8)
inactive: [1] 0.008 | [2] -0.078 | [3] 0.115 | [5] 0.204

Twelve consecutive entries already listed:
NFKBIA (UniProt P25963)
inactive: [3] -0.009

NRSN2 (UniProt Q9GZP1)
inactive: [4] 0.007

NGDN (UniProt Q8NEJ9)
inactive: [2] -0.047 | [4] -0.121 | [5] 0.278

NFKB2 (UniProt Q00653)
inactive: [1] 0.05 | [2] -0.076 | [4] 0.147 | [5] 0.126

NLRC3 isoform 2 (UniProt Q7RTR2)
inactive: [1] 0 | [2] -0.037 | [3] 0.433 | [5] 0.152

NFIC isoform 6 (UniProt P08651)
inactive: [3] -0.029

NFKBIE (UniProt O00221)
inactive: [2] 0.128 | [3] 0.12 | [4] 0.012 | [5] -0.01

NOC2L (UniProt Q9Y3T9)
inactive: [1] -0.002 | [2] 0.037 | [3] 0.08 | [4] -0.005 | [5] -0.008

NR2C1 (UniProt P13056)
inactive: [1] 0.038 | [3] 0.234

NETO2 (UniProt Q8NC67)
inactive: [3] 0.077

NOTCH2 (UniProt Q04721)
inactive: [1] 0.087 | [4] -0.055

NEURL4 (UniProt Q96JN8)
inactive: [1] 0.008 | [2] -0.078 | [3] 0.115 | [5] 0.204

Remaining list, next part

NOP14 (UniProt P78316)
inactive: [2] -0.027 | [3] -0.133 | [4] 0.191 | [5] -0.094

NFATC1 (UniProt O95644)
inactive: [3] 0.311

NR3C1 isoform 3 (UniProt P04150)
inactive: [2] -0.029 | [4] 0.042 | [5] 0.155

NOL4L (UniProt Q96MY1)
inactive: [4] 0.032
